These are yes or no findings as the source states them, for the method shown. Binding seen in cells or lysates may run through a third protein. Some results given as binding are weak or reduced against the parent protein; the word gives no strength.
Target: InsP3R3 (mouse (endogenous in RAW264.7)) (UniProt P70227)
Assay: co-IP; RAW264.7 cell lysates immunoprecipitated with control rabbit IgG, anti-SEC5 or anti-InsP3R3 antibody; western blotting

Amino acid sequences for entries named in this document (tags omitted).
UniProt P70227: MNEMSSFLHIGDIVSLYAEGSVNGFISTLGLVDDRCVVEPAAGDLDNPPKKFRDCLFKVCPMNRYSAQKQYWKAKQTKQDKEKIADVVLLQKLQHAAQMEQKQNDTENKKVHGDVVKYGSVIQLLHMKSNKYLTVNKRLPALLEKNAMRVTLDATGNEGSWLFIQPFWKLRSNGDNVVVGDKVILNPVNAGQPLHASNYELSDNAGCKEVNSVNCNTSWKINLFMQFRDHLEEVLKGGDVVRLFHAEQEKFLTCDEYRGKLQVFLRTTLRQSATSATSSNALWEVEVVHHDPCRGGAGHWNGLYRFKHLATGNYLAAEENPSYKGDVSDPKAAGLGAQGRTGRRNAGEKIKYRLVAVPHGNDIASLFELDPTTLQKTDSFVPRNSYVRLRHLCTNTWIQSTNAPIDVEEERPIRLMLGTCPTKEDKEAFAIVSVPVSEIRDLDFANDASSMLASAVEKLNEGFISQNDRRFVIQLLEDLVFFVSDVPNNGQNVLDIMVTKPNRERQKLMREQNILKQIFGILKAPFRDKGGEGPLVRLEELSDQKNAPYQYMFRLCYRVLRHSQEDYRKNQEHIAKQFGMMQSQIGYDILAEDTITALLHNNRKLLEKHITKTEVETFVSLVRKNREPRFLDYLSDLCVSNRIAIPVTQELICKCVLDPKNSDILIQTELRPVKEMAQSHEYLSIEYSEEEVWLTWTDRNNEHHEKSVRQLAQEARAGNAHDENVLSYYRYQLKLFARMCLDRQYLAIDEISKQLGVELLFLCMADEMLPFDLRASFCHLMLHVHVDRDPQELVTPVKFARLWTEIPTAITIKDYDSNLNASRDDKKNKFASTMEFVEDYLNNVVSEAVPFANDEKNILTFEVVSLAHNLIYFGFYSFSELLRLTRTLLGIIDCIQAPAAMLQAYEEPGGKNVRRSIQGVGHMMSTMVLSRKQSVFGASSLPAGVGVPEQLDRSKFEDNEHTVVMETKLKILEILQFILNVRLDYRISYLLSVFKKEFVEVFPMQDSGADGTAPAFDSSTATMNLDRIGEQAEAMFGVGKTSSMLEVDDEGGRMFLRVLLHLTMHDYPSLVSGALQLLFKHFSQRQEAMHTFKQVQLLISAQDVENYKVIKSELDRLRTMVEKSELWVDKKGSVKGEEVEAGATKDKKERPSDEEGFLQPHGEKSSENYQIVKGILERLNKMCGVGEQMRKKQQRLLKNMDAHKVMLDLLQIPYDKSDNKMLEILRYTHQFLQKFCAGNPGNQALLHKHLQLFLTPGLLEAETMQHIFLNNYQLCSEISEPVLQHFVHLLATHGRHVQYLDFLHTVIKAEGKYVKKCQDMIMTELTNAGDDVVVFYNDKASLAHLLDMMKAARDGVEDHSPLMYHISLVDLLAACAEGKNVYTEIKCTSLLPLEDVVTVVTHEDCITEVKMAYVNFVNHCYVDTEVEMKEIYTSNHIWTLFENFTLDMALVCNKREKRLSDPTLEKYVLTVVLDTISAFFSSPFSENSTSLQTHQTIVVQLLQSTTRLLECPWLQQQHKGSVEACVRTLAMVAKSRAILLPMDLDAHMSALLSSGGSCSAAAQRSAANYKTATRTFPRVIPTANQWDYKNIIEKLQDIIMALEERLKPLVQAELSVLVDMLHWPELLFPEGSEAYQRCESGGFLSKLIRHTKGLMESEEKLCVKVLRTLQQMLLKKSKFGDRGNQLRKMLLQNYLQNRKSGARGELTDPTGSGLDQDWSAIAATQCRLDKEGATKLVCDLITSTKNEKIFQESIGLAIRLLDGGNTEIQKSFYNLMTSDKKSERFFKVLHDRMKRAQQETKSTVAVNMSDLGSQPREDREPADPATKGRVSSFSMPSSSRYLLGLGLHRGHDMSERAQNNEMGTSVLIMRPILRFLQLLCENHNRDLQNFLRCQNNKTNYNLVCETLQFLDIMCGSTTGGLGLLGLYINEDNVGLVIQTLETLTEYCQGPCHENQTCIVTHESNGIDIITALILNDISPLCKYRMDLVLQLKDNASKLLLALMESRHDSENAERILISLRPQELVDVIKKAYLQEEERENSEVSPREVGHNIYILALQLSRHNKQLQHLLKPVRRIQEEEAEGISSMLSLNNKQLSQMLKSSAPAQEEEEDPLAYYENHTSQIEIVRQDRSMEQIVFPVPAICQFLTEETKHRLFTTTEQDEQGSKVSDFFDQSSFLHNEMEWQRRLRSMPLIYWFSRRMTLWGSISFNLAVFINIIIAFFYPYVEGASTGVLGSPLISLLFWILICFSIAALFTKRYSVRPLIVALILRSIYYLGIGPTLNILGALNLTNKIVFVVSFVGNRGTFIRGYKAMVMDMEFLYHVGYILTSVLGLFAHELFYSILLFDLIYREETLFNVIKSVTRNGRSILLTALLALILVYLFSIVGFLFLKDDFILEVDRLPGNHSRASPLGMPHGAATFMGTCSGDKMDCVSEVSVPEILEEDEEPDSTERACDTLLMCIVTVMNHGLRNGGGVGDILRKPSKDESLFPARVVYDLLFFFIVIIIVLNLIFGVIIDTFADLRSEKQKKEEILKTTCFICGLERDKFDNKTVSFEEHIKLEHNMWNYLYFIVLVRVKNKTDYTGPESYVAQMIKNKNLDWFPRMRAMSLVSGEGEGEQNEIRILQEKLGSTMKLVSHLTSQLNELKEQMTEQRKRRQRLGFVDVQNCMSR
UniProt Q9D4H1: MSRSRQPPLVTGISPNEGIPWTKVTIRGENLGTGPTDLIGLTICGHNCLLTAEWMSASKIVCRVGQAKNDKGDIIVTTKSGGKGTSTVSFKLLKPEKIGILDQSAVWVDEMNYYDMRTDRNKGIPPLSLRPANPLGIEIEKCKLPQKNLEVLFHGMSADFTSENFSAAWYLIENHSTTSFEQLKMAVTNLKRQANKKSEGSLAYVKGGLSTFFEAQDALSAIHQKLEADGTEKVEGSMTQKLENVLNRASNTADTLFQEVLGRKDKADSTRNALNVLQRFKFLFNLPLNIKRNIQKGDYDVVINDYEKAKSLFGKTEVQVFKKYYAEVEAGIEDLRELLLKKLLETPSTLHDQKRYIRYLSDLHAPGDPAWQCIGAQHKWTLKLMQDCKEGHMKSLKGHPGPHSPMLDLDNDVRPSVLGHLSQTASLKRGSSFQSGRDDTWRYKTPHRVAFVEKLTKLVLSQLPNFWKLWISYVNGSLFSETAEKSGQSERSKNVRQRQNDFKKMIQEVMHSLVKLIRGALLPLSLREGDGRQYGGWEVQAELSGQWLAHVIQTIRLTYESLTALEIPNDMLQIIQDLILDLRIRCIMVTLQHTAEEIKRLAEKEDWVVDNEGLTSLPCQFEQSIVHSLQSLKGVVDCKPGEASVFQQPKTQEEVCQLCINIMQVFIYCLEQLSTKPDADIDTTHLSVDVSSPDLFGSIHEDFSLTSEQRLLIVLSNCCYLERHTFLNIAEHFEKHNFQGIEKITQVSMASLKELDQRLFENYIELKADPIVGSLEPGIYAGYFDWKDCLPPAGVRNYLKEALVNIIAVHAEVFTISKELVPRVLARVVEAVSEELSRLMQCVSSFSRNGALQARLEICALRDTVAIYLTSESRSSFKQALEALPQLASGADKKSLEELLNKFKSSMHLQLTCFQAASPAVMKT

Q: With SEC5 (from UniProt Q9D4H1 1-924) as the substance, how does the binding read?
A: binds
